Laboratory results: EP0017679B1, “Pyridylalkylpyrimidone compounds, process for preparing them and pharmaceutical compositions containing them” (SMITH KLINE & FRENCH LABORATORIES LIMITED, priority 1979, dated 1980)
Some of these results come from one statement about several compounds together.

Sequences of proteins named here, by UniProt entry; tags and fusion partners are left off.
UniProt P31389, whole entry: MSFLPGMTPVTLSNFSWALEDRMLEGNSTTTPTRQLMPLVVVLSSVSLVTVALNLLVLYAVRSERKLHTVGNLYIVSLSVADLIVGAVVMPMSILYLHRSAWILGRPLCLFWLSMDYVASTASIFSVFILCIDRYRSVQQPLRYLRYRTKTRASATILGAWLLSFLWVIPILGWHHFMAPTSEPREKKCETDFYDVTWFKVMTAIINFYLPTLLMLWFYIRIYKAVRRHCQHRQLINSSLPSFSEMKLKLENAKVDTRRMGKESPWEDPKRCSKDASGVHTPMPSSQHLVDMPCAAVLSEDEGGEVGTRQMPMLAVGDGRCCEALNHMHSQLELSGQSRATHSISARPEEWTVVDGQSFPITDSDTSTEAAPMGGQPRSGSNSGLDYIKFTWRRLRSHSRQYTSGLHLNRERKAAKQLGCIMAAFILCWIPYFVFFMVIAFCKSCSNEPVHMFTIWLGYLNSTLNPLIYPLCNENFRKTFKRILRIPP

Assays:
histamine H1-receptors = target: T1, histamine H1-receptors (Cavia porcellus, UniProt P31389); assay: histamine H1-antagonist activity (histamine-stimulated contractions of the isolated guinea-pig ileum); details: comparison with the analogue lacking the 6-substituent (or 5- and 6-substituents)
T1 construct: from tissue; host or cells: isolated guinea-pig ileum

histamine H2-receptors = assay: histamine H2-antagonist activity (test not specified for the comparison); details: comparison with the analogue lacking the 6-substituent (or 5- and 6-substituents)

| SMILES | potency as histamine H1-antagonists compared with the corresponding 5-(3-pyridylmethyl) analogue (histamine H1-receptors) | potency as histamine H2-antagonists compared with the corresponding 5-(3-pyridylmethyl) analogue (histamine H2-receptors) |
| --- | --- | --- |
| COc1cccnc1CCCCNc1ncc(Cc2ccc(C)nc2)c(=O)[nH]1 [Example 1, 2-[4-(3-methoxy-2-pyridyl)butylamino]-5-(6-methyl-3-pyridylmethyl)-4-pyrimidone] | approximately of equal potency | approximately of equal potency |
| Cc1ccc(Cc2cnc(NCCSCc3nc[nH]c3C)[nH]c2=O)cn1 [Example 2, 2-[2-(5-methyl-4-imidazolylmethylthio)ethylamino]-5-(6-methyl-3-pyridylmethyl)-4-pyrimidone] | approximately of equal potency | approximately of equal potency |
| Cc1ccc(Cc2cnc(NCCCCc3ncccc3Cl)[nH]c2=O)cn1 [Example 7, 2-[4-(3-chloro-2-pyridyl)butylamino]-5-(6-methyl-3-pyridyImethyl)-4-pyrimidone] | approximately of equal potency | approximately of equal potency |
| Cc1ccc(Cc2cnc(NCCSCc3nccs3)[nH]c2=O)cn1 [Example 9, 2-[2-(2-thiazolylmethylthio)ethylamino]-5-(6-methyl-3-pyridylmethyl)-4-pyrimidone] | approximately of equal potency | approximately of equal potency |
| Cc1cc(Cc2cnc(NCCSCc3ncccc3Br)[nH]c2=O)cnc1C [Example 11, 2-[2-(3-bromo-2-pyridylmethylthio)ethylamino]-5-(5,6-dimethyl-3-pyridylmethyl)-4-pyrimidone] | approximately of equal potency | approximately of equal potency |
| COc1ccc(Cc2cnc(NCCSCc3nc[nH]c3C)[nH]c2=O)cn1 [Example 13, 2-[2-(5-methyl-4-imidazolylmethylthio)ethylamino]-5-(6-methoxy-3-pyridyImethyl)-4-pyrimidone] | approximately of equal potency | approximately of equal potency |
